# Laboratory results reported in PubChem BioAssay AID651595 (National Center for Advancing Translational Sciences (NCATS), 2012).
# Hit rate of the full screen: of about 1,100 compounds, fewer than 10 were called active. Another 6% or so got no clear call; they are omitted. Calls come from the whole dose curve; as a rule, active = well fitted cell-killing curve with a large enough effect; inconclusive = small, poorly fitted or top-dose-only effect; inactive = flat fitted curve, though single readings scatter. The list shows a part of the results.
# Assay: qHTS of Nrf2 Activators: Hit Validation in Cytotox Assay;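 note: compound exposure lasted 24 hours before the ATP readout; 0% is about no effect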
# Conditions: Cell viability counter-screen for Nrf2 activator hits; series mostly up to 46.1 µM; activity change, negative = cytotoxicity: at the top concentration
# How it was run: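 Intracellular ATP measured with CellTiter-Glo luminescence (30 min, room temperature) as a viability read-out. Cells: AREc32_fluc, cultured overnight before 24 h compound exposure at 7 concentrations, 37 °C; activity here marks cytotoxicity.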
row,Structure (SMILES),"activity change, negative = cytotoxicity"
1,O=C(c1ccc(S(=O)(=O)Cc2cc(F)ccc2F)c([N+](=O)[O-])c1)N1CCCC1,inactive: -1.28%
2,COC(=O)c1ccccc1NC(=O)c1cccs1,inactive: 1.6%
3,COC(=O)c1c(NC(=O)/C=C/c2ccco2)sc2c1CCC2,inactive: 4.26%
4,O=[N+]([O-])c1cccc2ccc(/C=C/c3cccc(Br)c3)nc12,inactive: -2.52%
5,Nc1c(C(=O)C2CC2)sc2nc(-c3cccs3)cc(C(F)(F)F)c12,inactive: -0.311%
6,O=C(Nc1cccc([N+](=O)[O-])c1)Nc1cccs1,inactive: 9.78%
7,Cc1nn(-c2ccc3ccccc3c2)c(=O)c2ccccc12,inactive: 4.52%
8,Cc1ccc(C)c(NC(=O)COC(=O)c2cc(=O)c3ccccc3o2)c1,inactive: -5.65%
9,O=C1Nc2ccccc2/C1=C/c1ccccc1Cl,inactive: 1.16%
10,Cc1cc(=O)oc2c(C(=O)/C=C/c3ccccc3)c(O)ccc12,inactive: -0.125%
11,COc1ccccc1CC1S/C(=N/N=C/c2ccco2)NC1=O (stereo not drawn),inactive: -0.512%
12,O=C(Nc1ccc2nsnc2c1)c1cccs1,inactive: 2.83%
13,C=C1C(=O)[C@]23C[C@H]1CCC2[C@@]1(C)C(C[C@@H]3O)[C@](C)(C(=O)O)CC[C@@H]1O (stereo partly drawn),inactive: 4.89%
14,O=C(CSc1ncnc2c1oc1ccccc12)NCc1ccco1,inactive: -5.91%
15,COC(=O)c1sccc1NC(=O)c1ccc(Br)s1,inactive: -0.27%
16,Cc1csc(NC(=O)Nc2ccccc2[N+](=O)[O-])n1,inactive: -1.39%
17,CC(/C=N/n1c(-c2ccc(Cl)cc2)n[nH]c1=S)=C\c1ccco1,inactive: 8.05%
18,COc1ccc(Br)cc1/C=N/Nc1ccccn1,inactive: 1.96%
19,Cc1cc(Br)cn2c(Cc3ccccc3)c(-c3ccco3)nc12,inactive: -14%
20,O=C(/C=C/Nc1ccc(F)cc1)c1cccs1,inactive: 0.227%
21,O=C1CC(c2ccco2)CC(O)=C1C=Nc1cc(Cl)ccc1O (stereo not drawn),inactive: 4.15%
22,Cc1ccc2cccnc2c1NC(=S)NC(=O)c1ccccc1,inactive: 9.5%
23,O=C(CNC(=S)NC(=O)c1ccccc1Br)c1ccccc1,inactive: -3.7%
24,O=[N+]([O-])c1ccc(Cl)cc1N/N=C/c1ccncc1,inactive: 6.03%

row,Structure (SMILES),"activity change, negative = cytotoxicity"
1,CC(=O)c1sc(Nc2ccccc2)nc1C,inactive: 6.32%
2,NC(=O)c1cc2c3ccccc3ccn2c1-c1ccccc1,inactive: 5.99%
3,COc1ccc(Cl)cc1C(=O)NC(=S)Nc1nc(C)cc(C)n1,inactive: 1.2%
4,Cc1ccc([N+](=O)[O-])cc1NC(=S)NC(=O)c1ccco1,inactive: 13.8%
5,Cc1cccc(C)c1OCC(=O)N/N=C/C=C/c1ccco1,inactive: 3.17%
6,N#Cc1sc2nc(-c3ccccc3)cc(C(F)(F)F)c2c1N,inactive: 14.9%
7,S=c1[nH]nc(-c2ccncc2)n1/N=C/C=C/c1ccco1,inactive: 6.05%
8,c1ccc(-c2cc3c(-n4cccc4)ncnc3o2)cc1,inactive: 0.0297%
9,Cc1ccc2nsnc2c1NC(=S)NC(=O)c1ccco1,inactive: 20.8%
10,O=C(CSc1ncnc2c1oc1ccccc12)c1cccs1,inactive: 4.02%
11,Oc1ccccc1C1CC(c2cccs2)=NC(c2ccc(Cl)cc2)N1 (stereo not drawn),inactive: 4.41%
12,O=C(O)c1ccc(/C=C2\COc3ccccc3C2=O)cc1,inactive: 5.51%
13,O=[N+]([O-])c1ccc(Cl)c(/C=N/n2c(-c3ccncc3)n[nH]c2=S)c1,inactive: 4.03%
14,O=C(CC(=O)Nc1ccccc1[N+](=O)[O-])Nc1ccccc1[N+](=O)[O-],inactive: 5.85%
15,O=C(Nc1ccc2ccccc2c1)c1ccc(Br)o1,inactive: -0.92%
16,CCCN(C(=O)c1ccco1)c1nnc(-c2ccccc2C)s1,inactive: -3.72%
17,C#CCn1c(=NC(=O)c2cccs2)sc2cccc(OC)c21,inactive: -9.62%
18,Cc1cc(C)n(-c2nc3ccccc3c(=O)n2OCc2ccc(F)cc2)n1,inactive: 3.49%
19,COC(=O)c1cc(S(=O)(=O)C(C)C)c(S(C)=O)s1 (stereo not drawn),inactive: 9.85%
20,O=c1c2ccccc2oc2ccc(-c3ccc4cc[nH]c4c3)cc12,inactive: -20.1%
21,Brc1ccc(-c2csc(N/N=C/c3ccco3)n2)cc1,inactive: 8.79%
22,Cn1c(/C=C/c2cccc([N+](=O)[O-])c2)c([N+](=O)[O-])c(=O)n(C)c1=O,inactive: 14.9%
23,COc1ccc2c(c1)C1=NN(/C(C)=C/C(C)=O)C(c3cccc(F)c3)C1CC2 (stereo not drawn),inactive: 4.09%
24,Nc1nccc(/C=C/c2c(F)cccc2Cl)n1,inactive: 6.06%

# Gathered by group: the entries above containing a CF3 group.
row,Structure (SMILES),"activity change, negative = cytotoxicity"
5,Nc1c(C(=O)C2CC2)sc2nc(-c3cccs3)cc(C(F)(F)F)c12,inactive: -0.311%
6,N#Cc1sc2nc(-c3ccccc3)cc(C(F)(F)F)c2c1N,inactive: 14.9%

# Carrying on.

row,Structure (SMILES),"activity change, negative = cytotoxicity"
1,Cc1cc(C)c2oc(-c3ccc(C)c(NC(=O)/C=C/c4ccco4)c3)nc2c1,inactive: -25.6%
2,O=C(NN/C(=N/S(=O)(=O)c1ccc(Cl)cc1)c1ccccc1)c1cccc(Cl)c1,inactive: -13.4%
3,O=C(Nc1cccc2ncccc12)c1ccc(Cl)cc1,inactive: 3.85%
4,Brc1cc(Cc2nnc(-c3ccccc3)o2)c(Br)s1,inactive: 6.39%
5,Nc1ccc2c(Cl)cc(Cl)cc2c1,inactive: -0.182%
6,COC(=O)c1sccc1NC(=O)c1cccc(OC)c1,inactive: -4.2%
7,COC(=O)[C@@]1(Sc2ccc(C)cc2)CC(=O)N(C(=O)/C=C/c2ccccc2)[C@@H]1c1ccccc1,inactive: 9.18%
8,CC(C)Cc1cc(-c2ccco2)c(C#N)c(N)n1,inactive: 8.99%
9,N#Cc1ccc(-c2ccco2)nc1SCc1ccccc1,inactive: -18.2%
10,Cn1c(/N=C(\N)c2ccccc2)nc2ccccc21,inactive: -3.63%
11,N#CC1=C(N)Oc2c(ccc3ccccc23)C1c1ccsc1 (stereo not drawn),inactive: -24.1%
12,Cc1ccccc1/C=C1\C(=O)Nc2ccc(F)cc21,inactive: -10.9%
13,Oc1ccc(Cl)cc1-c1cc(-c2ccco2)[nH]n1,inactive: -5.23%
14,Cc1ccc2c(N)c(C(=O)c3ccccc3)sc2n1,inactive: -0.845%
15,Cc1csc(NC(=S)NC(=O)c2ccccc2)n1,inactive: -0.679%
16,O=C(Nc1cccc(F)c1)c1cc(-c2ccco2)nc2ccccc12,inactive: -0.517%
17,Cc1nn(-c2cccc(C(F)(F)F)c2)c(=O)c2ccccc12,inactive: 0.43%
18,CC(=O)Nc1ccc(N=Nc2ccccc2)cc1[N+](=O)[O-],inactive: -3.62%
19,CCOc1ccccc1NC(=S)NC(=O)c1ccco1,inactive: -1.64%
20,O=C(/C=C/c1ccc(-c2ccccc2[N+](=O)[O-])o1)c1ccc(Br)cc1,inactive: -2.62%
21,C=C(C)CNC(=S)N/N=C(\C)c1ccc(Cl)s1,inactive: -0.577%
22,COc1cc(-c2noc(-c3cccs3)n2)cc(OC)c1OC,inactive: 4.81%
23,CN1C2CCC1/C(=C\c1ccc(F)cc1)C(=O)/C2=C/c1ccc(F)cc1,inactive: -13.6%
24,Cc1cc(CNC(=O)c2cccc([N+](=O)[O-])c2)c2ccccc2n1,inactive: -0.688%

row,Structure (SMILES),"activity change, negative = cytotoxicity"
1,c1cncc(-c2nc(NCc3ccco3)c3ccccc3n2)c1,inactive: 4.7%
2,FC(F)(F)c1ccccc1Cc1c(-c2ccccc2)nc2c3ccccc3ccn12,inactive: -6.46%
3,COc1ccc(Cl)cc1NC(=O)c1cc(-c2ccco2)on1,inactive: 10.5%
4,Cc1ccc(S(=O)(=O)c2nc(S(C)(=O)=O)sc2N2CCN(C)CC2)cc1,inactive: 9.52%
5,Cc1ccccc1OCC(=O)Nc1ccccc1CO,inactive: 11.9%
6,COc1ccc(C(C#N)=C2C=CC(=NO)C=C2)cc1,inactive: -1.04%
7,O=C1CC(C(=O)Nc2ccc(Cl)c(Cl)c2)S/C(=N\N=C\c2ccco2)N1 (stereo not drawn),inactive: 11.6%
8,O=[N+]([O-])c1cccc(-c2nnc(-c3ccccc3)o2)c1,inactive: 5.23%
9,O=C(/C=C/c1ccco1)NCC(=O)N/N=C/c1ccc(Cl)cc1,inactive: 3.22%
10,Clc1ccc2nc(-c3ccco3)c(Cc3ccccc3)n2c1,inactive: -25.8%
11,Nn1c(-c2ccccc2)nc2cc(Cl)ccc2c1=O,inactive: -1.16%
12,O=C(c1ccco1)c1cc2c(ccc3ccccc32)oc1=O,inactive: 11.4%
13,Cc1nc2ccccc2c(=O)n1NCc1cc(Br)cs1,inactive: -2.41%
14,COc1ccccc1Nc1nc2ccccc2n2cnnc12,inactive: 7.57%
15,O=C(/C=C/c1ccco1)Nc1ccc(Cl)c(-c2nc3cc(Cl)ccc3o2)c1,inactive: -23.6%
16,COC(=O)[C@@H]1Cc2c([nH]c3ccccc23)C(C)(C)N1C(=O)CCl,inactive: 19.8%
17,CC(C)CCn1c(O)c(N=Nc2ccccn2)c2ccccc21,inactive: 5.08%
18,O=C(CN1CCN(Cc2ccccc2Cl)CC1)N/N=C/C=C/c1ccco1,inactive: -2.05%
19,CCCc1nc([N+](=O)[O-])c(S(=O)(=O)c2ccccc2)n1CC(C)C,inactive: -0.414%
20,c1coc(-c2ccnc3nc(-n4cccc4)nn23)c1,inactive: 6.84%
21,COc1nc(-c2ccccc2)cc(-c2ccccc2)n1,inactive: 0.23%
22,COc1cc(OC)c(NC(=O)c2ccco2)cc1Cl,inactive: -3.27%
23,O=C(CCS(=O)(=O)c1ccccc1)Nc1nc2ccc(F)cc2s1,inactive: 17.2%
24,CC1Oc2ccccc2OC1C(=O)Nc1ccccn1 (stereo not drawn),inactive: 10.4%

# In the list so far, 13 have fluorine:
row,Structure (SMILES),"activity change, negative = cytotoxicity"
1,O=C(c1ccc(S(=O)(=O)Cc2cc(F)ccc2F)c([N+](=O)[O-])c1)N1CCCC1,inactive: -1.28%
5,Nc1c(C(=O)C2CC2)sc2nc(-c3cccs3)cc(C(F)(F)F)c12,inactive: -0.311%
20,O=C(/C=C/Nc1ccc(F)cc1)c1cccs1,inactive: 0.227%
6,N#Cc1sc2nc(-c3ccccc3)cc(C(F)(F)F)c2c1N,inactive: 14.9%
18,Cc1cc(C)n(-c2nc3ccccc3c(=O)n2OCc2ccc(F)cc2)n1,inactive: 3.49%
23,COc1ccc2c(c1)C1=NN(/C(C)=C/C(C)=O)C(c3cccc(F)c3)C1CC2 (stereo not drawn),inactive: 4.09%
24,Nc1nccc(/C=C/c2c(F)cccc2Cl)n1,inactive: 6.06%
12,Cc1ccccc1/C=C1\C(=O)Nc2ccc(F)cc21,inactive: -10.9%
16,O=C(Nc1cccc(F)c1)c1cc(-c2ccco2)nc2ccccc12,inactive: -0.517%
17,Cc1nn(-c2cccc(C(F)(F)F)c2)c(=O)c2ccccc12,inactive: 0.43%
23,CN1C2CCC1/C(=C\c1ccc(F)cc1)C(=O)/C2=C/c1ccc(F)cc1,inactive: -13.6%
2,FC(F)(F)c1ccccc1Cc1c(-c2ccccc2)nc2c3ccccc3ccn12,inactive: -6.46%
23,O=C(CCS(=O)(=O)c1ccccc1)Nc1nc2ccc(F)cc2s1,inactive: 17.2%

# (listing goes on)

row,Structure (SMILES),"activity change, negative = cytotoxicity"
1,O=C(CN1CCCCC1)Nc1nnc(-c2ccccc2)s1,inactive: 0.807%
2,Oc1c(-c2cc(-c3ccco3)[nH]n2)ccc2ccccc12,inactive: -16.1%
3,O=C(O)CCCCCN1C(=O)/C(=C\c2ccncc2)SC1=S,inactive: -4.34%
4,c1cc2c3c(cccc3c1)NN=N2,inactive: 0.637%
5,CCCNC(=O)c1ccc(S(=O)(=O)c2ccc(OC)cc2)c([N+](=O)[O-])c1,inactive: 6.12%
6,O=C(Nc1ccccc1F)c1ccc(-c2cccc([N+](=O)[O-])c2)o1,inactive: -1.55%
7,O=C(N=Nc1c(O)[nH]c2ccccc12)c1ccco1,inactive: -20.5%
8,COc1ccccc1NC(=O)/C(C#N)=C/C=C/c1ccco1,inactive: -3.13%
9,Cc1c(=O)n(OCc2ccc(Cl)cc2)c2ccccc2[n+]1[O-],inactive: -2.39%
10,Cc1ccc(-c2nc3sc(C#N)c(N)n3c(=O)c2C#N)cc1,inactive: -0.164%
11,CC(C)=NNc1cnnc2ccc([N+](=O)[O-])cc12,inactive: -2.1%
12,O=c1c(-c2ccco2)[n+]([O-])c2ccccc2n1OCc1ccccc1,inactive: 4.78%
13,CCOc1cc(/C=C/c2ccc3cccc([N+](=O)[O-])c3n2)cc(Cl)c1O,inactive: -14.7%
14,Cc1[nH]c2ccccc2c1N=Nc1ccccc1C(=O)O,inactive: 3.08%
15,O=C(NC(=S)Nc1cc(C(F)(F)F)ccc1Cl)c1ccccc1,inactive: -2.22%
16,O=[N+]([O-])c1cnccc1-n1nnc2ccccc21,inactive: -2.62%
17,COc1cc2c(cc1OC)/C(=C/c1ccc(Cl)cc1)C(=O)OC2,inactive: 5.96%
18,Clc1ccc(C=Cc2ccccn2)cc1,inactive: 1.25%
19,Cc1cccc(NC(=O)C2CC(=O)N/C(=N/N=C/c3ccco3)S2)c1 (stereo not drawn),inactive: 3.66%
20,CNc1ccc(Br)cc(C(=O)/C=C/c2ccc(Cl)cc2Cl)c1=O,inactive: 14.3%
21,Oc1ccc(Br)cc1-c1cc(-c2ccco2)[nH]n1,inactive: -6.79%
22,CCOc1cc2ccccc2cc1C(=O)Nc1ccccn1,inactive: 9.51%
